Assay results: the supplement of paper PMC10689618
Where a name gives a salt, the structure may show the parent alone. This is one part of the list. Single values are uncertain, as repeats are few or missing.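 Primary human fetal astrocytes engulfed labelled rat cortical synaptosomes, measured as a red/green ratio corrected for calcein live-cell signal and scaled to the plate median. Toxicity meant calcein falling over 30%; decreased phagocytosis meant below 70% of median above 5 µM.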

Assays:
Human fetal astrocytes [1] = assay: loss of total cells relative to no-compound high-control median (toxicity); higher = more toxic (fewer cells); conditions: 24 h
Human fetal astrocytes [2] = assay: synaptosome phagocytosis (pHrodo/calcein intensity ratio) relative to plate median of data wells; higher = more phagocytosis; conditions: 24 h

Row | Structure (SMILES) | loss of total cells (Human fetal astrocytes [1]; 1.39 µM) | loss of total cells (Human fetal astrocytes [1]; 2.78 µM) | loss of total cells (Human fetal astrocytes [1]; 5.56 µM) | loss of total cells (Human fetal astrocytes [1]; 11.11 µM) | loss of total cells (Human fetal astrocytes [1]; 22.22 µM) | synaptosome phagocytosis (Human fetal astrocytes [2]; 1.39 µM) | synaptosome phagocytosis (Human fetal astrocytes [2]; 2.78 µM) | synaptosome phagocytosis (Human fetal astrocytes [2]; 5.56 µM) | synaptosome phagocytosis (Human fetal astrocytes [2]; 11.11 µM) | synaptosome phagocytosis (Human fetal astrocytes [2]; 22.22 µM)
1 | CC1=C(/C=C/C(C)=C/C=C/C(C)=C/C=C/C=C(C)/C=C/C=C(C)/C=C/C2=C(C)C(=O)CCC2(C)C)C(C)(C)CCC1=O [CANTHAXANTHIN (euglenanone)] | -4.9% | -0.4% | 9.5% | 12.8% | 11.1% | 80.3% | 75% | 118% | 122% | 103%
2 | C=C1C(=O)[C@]23[C@H](CC[C@@H]1[C@@H]2O)[C@]12CO[C@@]3(O)[C@H](O)[C@H]1C(C)(C)CC[C@@H]2O | -18.9% | -6.9% | 19.8% | 25% | 34.8% | 124% | 96.7% | 101% | 67.3% | 68.6%
3 | CCC(=O)c1c(O)cc(O)cc1O | 4% | 14.1% | -49.3% | 8.8% | -39.4% | 125% | 142% | 0% | 92.1% | 70.8%
4 | CC(=O)O[C@H]1CC[C@]2(C)C3=CC(=O)[C@@]4(C)C(C[C@@H]5OC6(OCC(C)CC6Br)[C@@H](C)[C@@H]54)C3CC[C@H]2C1 (stereo partly drawn) [3beta-ACETOXY-23-BROMO-ISOALLOSPIROST-9 (11)-ENE-12-ONE] | -17% | -0.7% | 29% | 38.7% | -15.9% | 86.6% | 115% | 131% | 111% | 108%
5 | O=C1O[C@H]([C@@H](O)CO)C(O)=C1O | -15.3% | -38.9% | 5.6% | 45.6% | -7.2% | 116% | 109% | 118% | 179% | 120%
6 | OC[C@H]1O[C@H]([S-])[C@H](O)[C@@H](O)[C@@H]1O.[Au+] | -32.4% | 4.6% | 51.4% | 81.3% | 90.1% | 99.6% | 98.7% | 93.9% | 70.5% | 56.5%
7 | CN(C)CCCSC(=N)N | -3.3% | -12.6% | 17.6% | 31.1% | 21.5% | 98.7% | 83.1% | 115% | 79% | 102%
8 | CCC(=O)OCC(=O)[C@@]1(OC(=O)CC)[C@@H](C)C[C@H]2[C@@H]3CCC4=CC(=O)C=C[C@]4(C)[C@@]3(Cl)[C@@H](O)C[C@@]21C | -12.4% | -17.4% | 5.1% | -14.8% | 9.6% | 106% | 81.1% | 112% | 106% | 77.6%
9 | C=C1[C@H]2CC[C@@]3(C)[C@H](c4ccoc4)OC(=O)C[C@]13O[C@H]1C[C@H](O)C(C)(C)[C@H](CC(=O)OC)[C@]12C [3-DEOXY-3beta-HYDROXYANGOLENSIC ACID METHYL ESTER] | -22.1% | -1.3% | -19.8% | -3.9% | -10.7% | 124% | 84.9% | 93.2% | 98.1% | 85.3%
10 | CC(COc1ccccc1)N(CCCl)Cc1ccccc1 (stereo not given) [Phenoxybenzamine hydrochloride] | 4.1% | -4% | 17.1% | 14.1% | 27.2% | 108% | 94.1% | 97.8% | 51.7% | 70.9%
11 | Cc1ccc2c(c1)CC[C@H]1CC(=O)CC[C@]21C | -12% | 0% | 37.4% | -14.2% | 14.4% | 105% | 94.9% | 139% | 86.1% | 132%
12 | C[C@@H]1C[C@H]2[C@@H]3CCC4=CC(=O)C=C[C@]4(C)[C@@]3(F)[C@@H](O)C[C@]2(C)[C@@]1(O)C(=O)CO | -11% | -41% | -45.3% | -22.2% | -8.2% | 98.8% | 94.9% | 109% | 100% | 82.9%
13 | C/C=C1\[C@H]2C=C(C)C[C@]1(N)c1ccc(=O)[nH]c1C2 | -23.8% | -15.5% | -11% | 10.1% | -0.7% | 127% | 112% | 119% | 107% | 92.2%
14 | Cc1ccc(-c2cc(C(F)(F)F)nn2-c2ccc(S(N)(=O)=O)cc2)cc1 | -51.6% | -16.7% | -0.6% | -4.9% | 3.4% | 94.5% | 131% | 95% | 84.5% | 105%
15 | C=CC(C1=CC(=O)C(OC)=CC1=O)c1ccccc1 (stereo not given) | 4.7% | 1.3% | -20.6% | 41.3% | 2.6% | 102% | 100% | 89% | 123% | 90.3%
16 | CCn1cc(C(=O)O)c(=O)c2cnc(N3CCNCC3)nc21 | 1.1% | -1.1% | 7.2% | -2.1% | 9.8% | 94.5% | 81.5% | 82.4% | 97.7% | 126%
17 | CC(C)(O/N=C(\C(=O)N[C@@H]1C(=O)N2C(C(=O)[O-])=C(C[n+]3ccccc3)CS[C@H]12)c1csc(N)n1)C(=O)O | -14.9% | 6% | 42.7% | 7.1% | 24.8% | 107% | 109% | 135% | 86.6% | 140%
18 | Nc1ccccc1C(=O)CC(N)C(=O)O (stereo not given) | 4.1% | -4% | -18.3% | 10.8% | 3.7% | 89.9% | 95.2% | 87% | 103% | 124%
19 | C[C@H](N)CO | -19.7% | 11.9% | -6.6% | 0% | -3.7% | 89.2% | 114% | 94.2% | 106% | 116%
20 | NC(=O)c1cccnc1 | 5% | -2.1% | 4.5% | -6.3% | -4% | 122% | 81.9% | 103% | 107% | 103%

Row | Structure (SMILES) | loss of total cells (Human fetal astrocytes [1]; 1.39 µM) | loss of total cells (Human fetal astrocytes [1]; 2.78 µM) | loss of total cells (Human fetal astrocytes [1]; 5.56 µM) | loss of total cells (Human fetal astrocytes [1]; 11.11 µM) | loss of total cells (Human fetal astrocytes [1]; 22.22 µM) | synaptosome phagocytosis (Human fetal astrocytes [2]; 1.39 µM) | synaptosome phagocytosis (Human fetal astrocytes [2]; 2.78 µM) | synaptosome phagocytosis (Human fetal astrocytes [2]; 5.56 µM) | synaptosome phagocytosis (Human fetal astrocytes [2]; 11.11 µM) | synaptosome phagocytosis (Human fetal astrocytes [2]; 22.22 µM)
21 | O=c1c(O)c(-c2ccc(O)c(O)c2)oc2cc(O)ccc12 | -13.9% | -20.6% | 19% | 16.2% | 14.8% | 109% | 46.2% | 124% | 70.9% | 99.3%
22 | CC=C(C)C(=O)OC1C(OC(C)=O)C2(CO)C(O)CC3(C)C(=CCC4C5(C)CCC(OC6OC(C(=O)O)C(OC7OC(CO)C(O)C(O)C7O)C(O)C6OC6OC(CO)C(O)C(O)C6O)C(C)(CO)C5CCC43C)C2CC1(C)C (stereo not drawn) [beta-ESCIN] | 7.6% | 1.1% | 2.9% | 2.1% | 17.4% | 88.9% | 144% | 78% | 96.8% | 48.7%
23 | COc1c(CC(=O)c2cc3c(cc2O)OC(C)(C)C(O)C3)ccc2c1C=CC(C)(C)O2 (stereo not given) | -8.3% | 16.6% | -19.8% | 16.1% | -12.2% | 108% | 108% | 104% | 99.2% | 86.8%
24 | COc1cc2c(cc1OC)-c1c(oc3cc(O)cc(O)c3c1=O)CO2 | -22.8% | 2% | 41.2% | 4.5% | 8.5% | 101% | 116% | 158% | 92.5% | 105%
25 | Oc1c(Cl)cc(Cl)c(Cl)c1Cc1c(O)c(Cl)cc(Cl)c1Cl | 11.6% | 1% | -2.1% | 49.9% | 54.4% | 88.8% | 84.3% | 43.7% | 6.6% | 0%
26 | C[C@]12CCC(=O)C=C1CC[C@@H]1[C@@H]2[C@@H](O)C[C@@]2(C)[C@H]1CC[C@]2(O)C(=O)CO | -9.1% | -21% | -0.3% | -12.5% | 9.1% | 109% | 104% | 119% | 146% | 110%
27 | CCN(CC)CCc1nc(-c2ccccc2)no1 | 23.5% | 11.9% | 9.4% | 3.8% | 17.4% | 116% | 124% | 144% | 126% | 95%
28 | Nc1c2ccccc2nc2ccccc12 | 0.9% | -11.9% | -8.4% | 27.4% | 0.9% | 116% | 104% | 95.5% | 71.7% | 63.2%
29 | CC(=O)c1cc2ccccc2oc1=O | 18.4% | 20.6% | 25.4% | 9.6% | 14.4% | 123% | 133% | 103% | 120% | 138%
30 | CC1(C)S[C@@H]2[C@H](NC(=O)[C@H](NC(=O)N3CCNC3=O)c3ccccc3)C(=O)N2[C@H]1C(=O)O | -31.5% | -1.5% | 6.9% | -3.9% | 9.6% | 119% | 87% | 102% | 107% | 98.3%
31 | C[C@@H]1O[C@@H]1P(=O)(O)O [Phosphomycin disodium] | 25.8% | -21.4% | 17.4% | 17.4% | 9% | 124% | 116% | 138% | 95% | 118%
32 | Cc1occc(=O)c1O | -10.7% | -21.3% | 3.7% | 8.1% | 15.6% | 142% | 94.6% | 94% | 99.3% | 145%
33 | CN1CCCC(n2nc(Cc3ccc(Cl)cc3)c3ccccc3c2=O)CC1 (stereo not given) | -32.3% | 18.3% | 3.1% | 37% | 16.5% | 64.6% | 134% | 95.7% | 97.5% | 84.5%
34 | CCCCOc1ccc(CC(=O)NO)cc1 | 14.1% | 6.9% | 8.7% | 20.5% | 24.2% | 70.2% | 120% | 90.4% | 104% | 116%
35 | O=C(O)[C@H](O)[C@@H](O)[C@H](O[C@@H]1O[C@H](CO)[C@H](O)[C@H](O)[C@H]1O)[C@H](O)CO | 8.3% | 18.4% | 8.7% | -1.3% | 9.8% | 94.3% | 74.9% | 112% | 108% | 116%
36 | C#C[C@]1(O)CC[C@H]2[C@@H]3CCC4=Cc5oncc5C[C@]4(C)[C@H]3CC[C@@]21C | -0.3% | -13.2% | -4.9% | -2.6% | -6.4% | 95.7% | 99.7% | 96% | 95.1% | 76.2%
37 | CCOc1cc(CC(=O)N[C@@H](CC(C)C)c2ccccc2N2CCCCC2)ccc1C(=O)O | -19.1% | -10.7% | -13.5% | -7.8% | 5.1% | 107% | 110% | 105% | 132% | 112%
38 | COC(=O)CC1C(C)(C)C(OC(C)=O)[C@@H]2[C@@H](OC(C)=O)[C@]34O[C@@]2(O)[C@]1(C)C3CC[C@]1(C)C4=CC(=O)O[C@H]1c1ccoc1 (stereo not given in full) | 11.2% | 2.5% | 16.7% | 4.6% | 22% | 114% | 94.5% | 137% | 95.1% | 49.8%
39 | CC(=O)c1c(O)cc(O)cc1O | 2.5% | 12.6% | 20.3% | 7.9% | 28.8% | 107% | 81.6% | 138% | 114% | 109%
40 | COc1ccc(/C=C/C(=O)c2ccc(O)cc2O)cc1 | -24.6% | -8.3% | 0% | 13.5% | -0.7% | 100% | 89.6% | 112% | 133% | 98.8%

Sorted by molar mass (descending): some entries from above.
Row | Structure (SMILES) | loss of total cells (Human fetal astrocytes [1]; 1.39 µM) | loss of total cells (Human fetal astrocytes [1]; 2.78 µM) | loss of total cells (Human fetal astrocytes [1]; 5.56 µM) | loss of total cells (Human fetal astrocytes [1]; 11.11 µM) | loss of total cells (Human fetal astrocytes [1]; 22.22 µM) | synaptosome phagocytosis (Human fetal astrocytes [2]; 1.39 µM) | synaptosome phagocytosis (Human fetal astrocytes [2]; 2.78 µM) | synaptosome phagocytosis (Human fetal astrocytes [2]; 5.56 µM) | synaptosome phagocytosis (Human fetal astrocytes [2]; 11.11 µM) | synaptosome phagocytosis (Human fetal astrocytes [2]; 22.22 µM)
1 | CC1=C(/C=C/C(C)=C/C=C/C(C)=C/C=C/C=C(C)/C=C/C=C(C)/C=C/C2=C(C)C(=O)CCC2(C)C)C(C)(C)CCC1=O [CANTHAXANTHIN (euglenanone)] | -4.9% | -0.4% | 9.5% | 12.8% | 11.1% | 80.3% | 75% | 118% | 122% | 103%
30 | CC1(C)S[C@@H]2[C@H](NC(=O)[C@H](NC(=O)N3CCNC3=O)c3ccccc3)C(=O)N2[C@H]1C(=O)O | -31.5% | -1.5% | 6.9% | -3.9% | 9.6% | 119% | 87% | 102% | 107% | 98.3%
18 | Nc1ccccc1C(=O)CC(N)C(=O)O (stereo not given) | 4.1% | -4% | -18.3% | 10.8% | 3.7% | 89.9% | 95.2% | 87% | 103% | 124%
